The other results are listed elsewhere or left out. Further columns of the screen follow, without active or inactive calls. Most of these compounds were active or inconclusive in the main read-out, so they are no random draw. Potencies come from curve fits of mixed quality, noted in brackets.
Assay: Cell signaling CRE-BLA (Fsk stim)
Settings: CHO CRE-bla reporter (cAMP response element driving beta-lactamase), forskolin EC10, beta-lactamase ratio; measured here: 460 nm blue channel
Procedure, shortened: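 Reporter-gene assay: CHO cells with beta-lactamase behind cAMP responsive elements, co-treated with compound and EC10 NKH 477 for 3 hours at 37 degrees Celsius. Activity came from the 460/530 nm CCF4 emission ratio.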

**Q.** For COc1cccc(CNC(=O)C2CCN(C(=O)N(C)C)CC2)c1, which AC50 is on record?
**A.** 5.01 µM [falling, single point]

**Q.** With Cc1nc2cnc(Oc3cccc(Cl)c3)nc2n(C2CC2)c1=O as the compound, how does the AC50 read?
**A.** 25.1 µM [rising, single point]

**Q.** Which AC50 does the source give for COc1cccc(-c2nn(C)c3sc(C(=O)N4CCN(c5ccccc5)CC4)cc23)c1 here?
**A.** 2.51 µM [rising, full curve]

**Q.** For Nc1cc(N)nc(SCc2cc(=O)oc3cc4c(cc23)CCC4)n1, which AC50 is on record?
**A.** 10 µM [rising, partial curve]

**Q.** For Cc1ccc2c(COC(=O)c3n[nH]c4ccccc34)cc(=O)oc2c1, which AC50 is on record?
**A.** 10 µM [rising, single point]

**Q.** For Cc1nn(CCc2nn[nH]n2)c2nc(C(F)(F)F)cc(C(F)(F)F)c12, which AC50 is on record?
**A.** 10 µM [rising, partial curve]

**Q.** Which AC50 does the source give for COc1ccc2nc(N3CCCC3)c(C#N)cc2c1 here?
**A.** 10 µM [rising, partial curve]

**Q.** With CCOC(=O)CSc1nc(N)nc(C)c1Br as the compound, how does the AC50 read?
**A.** 0.316 µM [rising, full curve, poor fit]

**Q.** Which AC50 does the source give for O=C(O)c1cc(S(=O)(=O)Nc2ccc3oc(=O)sc3c2)ccc1O here?
**A.** 1 µM [rising, partial curve]

**Q.** Which AC50 does the source give for COc1ccc(S(=O)(=O)N2CCN(CCO)CC2)cc1-c1nnc2c3ccccc3c(C)nn12 here?
**A.** 12.6 µM [rising, single point]

**Q.** With CCc1ccc(C2=Nn3c(nnc3-c3cccs3)SC2)cc1 as the compound, how does the AC50 read?
**A.** 7.94 µM [rising, partial curve]

**Q.** Which AC50 does the source give for COc1cc(CC(=O)Nc2nccs2)cc(OC)c1OC here?
**A.** 0.126 µM [falling, single point]

**Q.** Which AC50 does the source give for Cc1ccc(C(O)c2nccn2C)o1 (stereo not given) here?
**A.** 12.6 µM [falling, partial curve]

**Q.** Which AC50 does the source give for O=C(NCc1ccco1)c1c2c(nc3ccccc13)CCC2 here?
**A.** 0.631 µM [falling, full curve, poor fit]

**Q.** With COC(=O)c1ccc(CSc2ncn[nH]2)o1 as the compound, how does the AC50 read?
**A.** 1.26 µM [rising, full curve]

**Q.** With CCNc1ncc2nc(CCc3ccccc3)c(=O)n(CCOC)c2n1 as the compound, how does the AC50 read?
**A.** 12.6 µM [rising, partial curve]

**Q.** Which AC50 does the source give for COc1cc(-c2nnc(SCC#CCO)o2)cc(OC)c1OC here?
**A.** 10 µM [rising, single point]

**Q.** Which AC50 does the source give for CCN(c1ccccc1)c1nc2ccsc2c(=O)s1 here?
**A.** 0.00398 µM [falling, full curve, poor fit]

**Q.** For O=c1c2[nH]c3ccc(F)cc3c2ncn1CCCN1CCOCC1, which AC50 is on record?
**A.** 25.1 µM [rising, single point]

**Q.** For Cc1ccc(N(CC(=O)Nc2cccc(C)c2)S(=O)(=O)c2cccc3nonc23)cc1, which AC50 is on record?
**A.** 15.8 µM [falling, partial curve]

**Q.** Which AC50 does the source give for Cn1c(=O)c2c(ncn2C)n(C)c1=O here?
**A.** 15.8 µM [rising, partial curve, poor fit]

**Q.** With CCOc1cc(-c2c(C)c(C)nc(N)c2C#N)ccc1O as the compound, how does the AC50 read?
**A.** 10 µM [rising, partial curve]

**Q.** Which AC50 does the source give for CCCN(Cc1cc2cc(C)ccc2[nH]c1=O)S(C)(=O)=O here?
**A.** 5.01 µM [falling, single point]

**Q.** With Cn1c(=O)c2c(SCC(=O)N3CCCc4ccccc43)nc(C3CC3)nc2n(C)c1=O as the compound, how does the AC50 read?
**A.** 3.98 µM [rising, partial curve]

**Q.** Which AC50 does the source give for O=C(O)CC(Cc1ccccc1)c1ccc2c(c1)OCO2 (stereo not given) here?
**A.** 0.00316 µM [falling, full curve, poor fit]

**Q.** With COc1ccc(N2CCN(CCNC(=O)C3CCN(S(=O)(=O)c4cccs4)CC3)CC2)cc1 as the compound, how does the AC50 read?
**A.** 0.0398 µM [falling, full curve, poor fit]

**Q.** Which AC50 does the source give for O=C(NCCc1c[nH]c2ccccc12)C(F)(F)C(F)F here?
**A.** 3.16 µM [falling, full curve]

**Q.** For CC(O)c1cccc(NC(=O)CCC(=O)O)c1 (stereo not given), which AC50 is on record?
**A.** 0.0158 µM [falling, full curve]

**Q.** Which AC50 does the source give for COc1cccc2c(C)c(C(=O)O)[nH]c12 here?
**A.** 0.00398 µM [falling, full curve, poor fit]

**Q.** Which AC50 does the source give for Cc1cc(C)c2nc(-c3ccccn3)cc(C(=O)NCc3ccco3)c2c1 here?
**A.** 10 µM [falling, single point]

**Q.** For CCNc1nc(SC(C)C(=O)Nc2ccccc2)nc(N2CCOCC2)n1 (stereo not given), which AC50 is on record?
**A.** 12.6 µM [rising, partial curve]

**Q.** For CCn1c(SCC(=O)Nc2ccc(NC(=O)c3ccco3)c(OC)c2)nc2ccccc2c1=O, which AC50 is on record?
**A.** 1 µM [rising, partial curve]

**Q.** Which AC50 does the source give for CCCn1c(C)nc2c(N3CCOCC3)nc(C)nc21 here?
**A.** 12.6 µM [rising, partial curve]

**Q.** Which AC50 does the source give for COc1cc(-c2nc(S(=O)(=O)c3ccc(Cl)cc3)c(N3CCOCC3)o2)cc(OC)c1OC here?
**A.** 1 µM [rising, partial curve]

**Q.** Which AC50 does the source give for CSc1nc2ccc(Nc3nc(N4CCOCC4)nc(N4CCOCC4)n3)cc2s1 here?
**A.** 3.16 µM [rising, partial curve]

**Q.** For N#Cc1nc(-c2ccc(OCc3ccccc3)cc2)oc1NCCN1CCOCC1, which AC50 is on record?
**A.** 5.01 µM [rising, partial curve]

**Q.** With COc1ccc(CNc2oc(-c3cccc4ccccc34)nc2C#N)cc1 as the compound, how does the AC50 read?
**A.** 10 µM [rising, partial curve]

**Q.** For CCn1c(COc2ccc(Cl)cc2)nnc1SCc1ccc(C#N)cc1, which AC50 is on record?
**A.** 12.6 µM [falling, single point]

**Q.** Which AC50 does the source give for CCC(=O)Nc1nc2ccc3nc(C)sc3c2s1 here?
**A.** 6.31 µM [rising, partial curve]

**Q.** With N=c1n(Cc2ccccc2)c2ccccc2n1CC(O)c1ccco1 (stereo not given) as the compound, how does the AC50 read?
**A.** 7.94 µM [falling, partial curve]

**Q.** Which AC50 does the source give for Cc1cc(C)nc(Nc2ccccc2Br)n1 here?
**A.** 5.01 µM [falling, single point]

**Q.** For O=C(Nc1ccccc1N1CCCCC1)c1ccc2nccnc2c1, which AC50 is on record?
**A.** 10 µM [rising, partial curve]

**Q.** With C=CCn1c(SCC(=O)NC2CCCC2)nc2scc(-c3ccco3)c2c1=O as the compound, how does the AC50 read?
**A.** 12.6 µM [falling, single point]

**Q.** For Cc1ncoc1C(=O)NCc1ccccc1Cl, which AC50 is on record?
**A.** 3.16 µM [falling, single point]

**Q.** With CCOc1ccccc1-n1c(SCC(N)=O)nc2ccccc2c1=O as the compound, how does the AC50 read?
**A.** 0.126 µM [falling, single point]

Source: PubChem BioAssay AID662 (National Center for Advancing Translational Sciences (NCATS), 2007)
